At least one structure is not confirmed: it was looked up by name or label, or the drawing left a doubt.
Test system: U373 cells
Test: Modulation of SK1-I lethality by signaling inhibitors, U373 cells
Type: cell-based, human
Settings: U373, combined with SK1-I
Method: Cells were plated at 10,000 cells/well in 48-well plates and allowed to attach for 24 h. Cell proliferation was measured at the indicated times with WST-1 and absorbance was measured in a plate reader at 450 nm with background subtraction at 630 nm. Cell death was detected by trypan blue exclusion assays in which the percent of blue dye incorporating cells were determined using a light microscope and a hemacytometer as described (Yacoub et al. Mol Cancer Ther 7:314-329, 2008). Apoptotic cell death was measured by staining cell nuclei with the Hoechst dye bisbenzimide and apoptotic cells were identified by condensed, fragmented nuclear regions as described previously (Sankala et al. Cancer Res 67:10466-10474, 2007). A minimum of 300 cells was scored.

Structure (SMILES): Oc1c2ccccc2c2c3c(cccc13)N=N2 [SP600125]
- effect on SK1-I lethality: markedly attenuated

Structure (SMILES): O=c1cc(N2CCOCC2)oc2c(-c3ccccc3)cccc12 [LY294002]
- effect on SK1-I lethality: enhanced
